From PubChem BioAssay AID493014 (National Center for Advancing Translational Sciences (NCATS), 2011)
In all, about 340,000 compounds went through this assay and about 170 (0.05%) were called active. This list was built around the results that the source calls inconclusive (neither active nor inactive); the mix of calls is not that of the screen. Calls follow the shape of the dose curve; as a rule, active = well fitted inhibition curve with a large enough effect in the signal ratio, with a control signal flat (not every such curve was filed as active); inconclusive = small, poorly fitted or top-dose-only effect, or effect the other way, or a change in a side signal; inactive = flat fitted curve, though single readings scatter; the % refers to the signal ratio. A potency beside an inconclusive call is a rough fit, not a confirmed value.

Experiment: qHTS Assay to Find Inhibitors of Chronic Active B-Cell Receptor Signaling;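 as to activity change, negative = inhibition: plate controls were basal doxycycline-induced cells for no effect and cells given 10 µM MG132 for full effect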
Settings: ABC-DLBCL IkBa-CBG/CBR reporter, luminescence ratio (green luciferase fused to IkBa over red control in TMD8 lymphoma cells), 4 h; activity change, negative = inhibition: at 46.1 µM (top of the series) unless noted
How it was run: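 Compounds up to 46 uM were incubated four hours with TMD8 cells whose green CBG68 luciferase is fused to IkappaBalpha; red CBR luminescence normalised the signal, and concentration-effect curves were fitted to fusion, red and ratio data.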
Potency is read from the fitted curve at half-maximal effect.

| Compound | activity change, negative = inhibition | Potency |
| --- | --- | --- |
| CCCc1nc(-c2ccc(-c3ccc(F)cc3)cc2)no1 | inconclusive: 8.28% |  |
| Cn1ncc2c(NNC(=O)Cc3ccccc3)ncnc21 | inactive: 0.311% |  |
| Cc1nc(N2CCOCC2)c2cc(-c3ccccc3)sc2n1 | inactive: -2.28% |  |
| Cc1cc(C(=O)CSc2nc3ccccc3o2)c(C)n1CC1CCCO1 (centres undefined) | inconclusive: 18.7% |  |
| O=C(CN1CCOCC1)Nc1cc([N+](=O)[O-])ccc1Cl | inconclusive: 0.777% |  |
| CC(=O)c1ccc(OCc2cc(C(=O)NC(C)c3cnn(C)c3)no2)cc1 (centres undefined) | inconclusive: 2.81% |  |
| CCCn1c(CN2CCCCC2C)nc2c1c(=O)n(C)c(=O)n2C (centres undefined) | inconclusive: -3.46% |  |
| Cc1c(S(=O)(=O)N2CCN(c3cccc(C(F)(F)F)c3)CC2)c(=O)n(C)c(=O)n1C | inconclusive: -3.31% |  |
| Cc1nn(CCO)c(N)c1C1(O)C(=O)Nc2c(Cl)cc(Cl)cc21 (centres undefined) |  | inconclusive: 35.5 µM [falling, single point] |
| COc1cccc(C2CC(c3ccc(Br)cc3)=NN2C(=O)c2ccncc2)c1OC (centres undefined) |  | inconclusive: 25.1 µM [falling, partial curve] |
| Cc1cc(NC(=O)c2cccnc2Cl)ccc1NC(=O)c1cc2ccccc2o1 |  | inconclusive: 12.6 µM [falling, partial curve, poor fit] |
| COc1ccc(C2=NC(C)(C)Cc3cc(OC)c(OC)cc32)cc1OC | inconclusive: -11% |  |
| O=C(/C=C/C=C/c1ccccc1)c1ccco1 |  | inconclusive: 35.5 µM [falling, single point] |
| COC(=O)c1ccc2c(c1)N(Cc1cc(C)ccc1C)C(=O)c1ccccc1S2(=O)=O | inactive: -1.94% |  |
| N#CC1=C(S)N(c2ccc(F)cc2)C2(CCCCC2)NC1=O |  | inconclusive: 22.4 µM [falling, single point] |
| CC(=O)N1CCOc2ccc(S(=O)(=O)NCC3CCC(C(=O)Nc4ccc(C)cn4)CC3)cc21 (centres undefined) | inconclusive: -2.28% |  |
| COc1ccccc1NC(=O)c1nn(-c2ccccc2)ccc1=O | inconclusive: -22.1% |  |
| COc1cc(NC(=O)c2ccc(Cl)cc2Cl)ccc1-c1cc2ccccc2oc1=O | inconclusive: 0.664% |  |
| NC(Cc1ccccc1)C(O)(c1ccccc1)c1ccccc1 (centres undefined) | inconclusive: -29.4% |  |
| COc1ccc(C(=O)C2CCN(C(=S)Nc3ccc(F)cc3)CC2)cc1 | inconclusive: 0.347% |  |
| CCOC(=O)C1CCN(S(=O)(=O)Cc2ccc(Cl)cc2)CC1 |  | inconclusive: 2.91 µM [activator, full curve, poor fit] |
| CC1=C(C(=O)OC(C)C)C(c2ccc(Br)s2)NC(=O)N1 (centres undefined) |  | inconclusive: 32.6 µM [falling, partial curve, poor fit] |
| Clc1ccc2oc(-c3cccnc3NCc3ccccc3)nc2c1 | inactive: 1.75% |  |
| N#Cc1cccc(NC(=O)C2CCCN(C(=O)c3ccc(Cl)cc3)C2)c1 (centres undefined) | inactive: -7.04% |  |
| ON=C1c2cc(OCCN3CCCCC3)ccc2-c2ccc(OCCN3CCCCC3)cc21 | inactive: 1.74% |  |
| COc1ccc(S(=O)(=O)N2CCN(CCc3ccccc3)CC2)cc1 | inconclusive: -1.16% |  |
| CCOCCCn1c(=S)[nH]c2cc(C(=O)N3CCN(C4CCCCC4)CC3)ccc2c1=O | inactive: -0.593% |  |

| Compound | activity change, negative = inhibition | Potency |
| --- | --- | --- |
| CCc1ccc(N(CC(=O)NCc2cccnc2)S(=O)(=O)c2ccccc2)cc1 |  | inconclusive: 11.2 µM [falling, partial curve, poor fit] |
| O=[N+]([O-])c1ccc(CSc2nnc(-c3cccnc3)o2)cc1 | inconclusive: 3.99% |  |
| Nc1nc(C23CC4CC(CC(C4)C2)C3)[nH]c(=O)n1 | inconclusive: 4.73% |  |
| CC(=O)N1CCc2c(sc(NC(=O)CSc3ccc(F)cc3)c2-c2nc3ccccc3s2)C1 | inactive: -0.978% |  |
| Cc1ccc(Cn2c(CO)cnc2SCC(=O)Nc2cccc(F)c2)cc1 | inconclusive: -0.712% |  |
| Cc1ccc(NC(=O)CCn2c(=S)oc3ccccc32)cc1F | inconclusive: 3.89% |  |
| Cc1ccc(C2=CC(=O)C[C@H](c3ccc(Cl)cc3)C2)cc1 | inactive: 1.35% |  |
| COc1ccc(-c2nn(C)c(=O)c3ccccc23)cc1NC(=O)Cn1nc(C)c2ccccc2c1=O |  | inconclusive: 7.31 µM [falling, partial curve] |
| COc1ccc(Nc2cc(C(=O)NCc3ccco3)c3ccccc3n2)c(OC)c1 |  | inconclusive: 8.2 µM [rising, partial curve, poor fit] |
| O=C(NCCc1csc(-c2ccccc2)n1)c1ccco1 | inactive: 1.19% |  |
| C=CCC[C@@H](Cc1ccc(F)cc1)C(=O)OC[C@@H](NC(=O)[C@H](CC=C)CC(=O)N(CCO)Cc1ccccc1)c1ccccc1 | inconclusive: 0.289% |  |
| CCOCc1nc(C)c(Cl)c(NS(=O)(=O)c2ccc(N)cc2)n1 | inconclusive: 9% |  |
| Cc1cc(OCC(=O)NC2CC(C)(C)NC(C)(C)C2)c(C)cc1Br | inconclusive: -5.21% |  |
| COC(=O)c1cc(C)sc1NC(=O)CC1Nc2ccccc2NC1=O (centres undefined) | inconclusive: -10.2% |  |
| Cc1ccc(/C=N/NC(=S)Nc2cccc(S(=O)(=O)N(C)C)c2)o1 | inconclusive: 5.49% |  |
| COc1ccc(C(CNC(=O)c2ccccc2SC)N(C)C)cc1 (centres undefined) |  | inconclusive: 20 µM [falling, single point] |
| OC(CN1CCN(c2ccccc2Cl)CC1)c1ccccc1 (centres undefined) | inactive: -24.1% |  |
| N#CC1=C(N)N2C(=C(C#N)C1c1ccc(Br)cc1)Nc1ccccc12 (centres undefined) | inconclusive: 10.2% |  |
| Cc1occc1-c1nnc(SCC(=O)NC2CCC(C)CC2)o1 (centres undefined) | inactive: 0.137% |  |
| COc1ccc(CN=C(Nc2ccccc2)SC2CC(=O)NC2=O)cc1 (centres undefined) | inconclusive: 0.838% |  |
| C=CCSC1=C(C#N)C(c2ccc(OCC)cc2)CC(=O)N1 (centres undefined) | inconclusive: 17.6% |  |
| Cc1ccc(-c2nn(-c3ccccc3)cc2CSC(=N)N)cc1 |  | inconclusive: 31.6 µM [falling, single point] |
| CC(C)c1ccc(C2NC(=O)NC3=C2CCc2ccccc23)cc1 (centres undefined) | inconclusive: 8.53% |  |
| O=C1NC[C@@H](Cc2cccc3ccccc23)N(CCc2cc(C(F)(F)F)cc(C(F)(F)F)c2)C1=O | inconclusive: -10.2% |  |
| Oc1ccccc1N1CCN(c2ccc3ccccc3n2)CC1 | inactive: -0.242% |  |
| N#Cc1cc(-c2ccccc2)nc(NN)n1 |  | inconclusive: 10 µM [rising, partial curve] |
| COc1ccc(CN(C)C(=O)c2ccccc2OCc2c(C)noc2C)cc1OC | inconclusive: -5.3% |  |

Single records, as listed above.
O=C1NC[C@@H](Cc2cccc3ccccc23)N(CCc2cc(C(F)(F)F)cc(C(F)(F)F)c2)C1=O as listed: activity change, negative = inhibition: inconclusive: -10.2%
N#Cc1cc(-c2ccccc2)nc(NN)n1 as listed: Potency: inconclusive: 10 µM [rising, partial curve]
Oc1ccccc1N1CCN(c2ccc3ccccc3n2)CC1 as listed: activity change, negative = inhibition: inactive: -0.242%
C=CCC[C@@H](Cc1ccc(F)cc1)C(=O)OC[C@@H](NC(=O)[C@H](CC=C)CC(=O)N(CCO)Cc1ccccc1)c1ccccc1 as listed: activity change, negative = inhibition: inconclusive: 0.289%

Next entries

| Compound | activity change, negative = inhibition | Potency |
| --- | --- | --- |
| COc1cccc(C(=O)Nc2nc(C)cs2)c1 | inconclusive: 8.24% |  |
| COCCNC(=O)c1ccc2c(=O)n(Cc3ccco3)c(SCC(=O)NC3CCCCC3)nc2c1 | inconclusive: -17.4% |  |
| Cc1ccc(Sc2ncccc2C(=O)NCC(c2ccc(F)cc2)N2CCOCC2)cc1C (centres undefined) |  | inconclusive: 29.1 µM [falling, partial curve, poor fit] |
| O=C(O)c1ccc(NC(CSCc2cccc(F)c2)C(=O)O)c([N+](=O)[O-])c1 (centres undefined) | inconclusive: -1.93% |  |
| Cc1ccc(C(C)C)c(OCCCN2CC(C)OC(C)C2)c1 (centres undefined) | inconclusive: 13.6% |  |
| Cc1ccc(N/C=C/C(=O)c2sc(-c3ccccc3)nc2C)cc1 |  | inconclusive: 0.316 µM [rising, full curve, poor fit] |
| Cc1cc(Nc2ccccc2)c2c([N+](=O)[O-])cc(C)c(C)c2n1 | inconclusive: 14.8% |  |
| CCC1(c2ccccc2)NC(=O)N(CC(=O)Nc2cc(S(=O)(=O)N3CCCCCC3)ccc2OC)C1=O (centres undefined) | inconclusive: 4.31% |  |
| Cc1ccc(C2(C)NC(=O)N(CC(=O)Nc3c(C)n(C)n(-c4ccccc4)c3=O)C2=O)cc1 (centres undefined) | inconclusive: 0.0046% |  |
| CN(C(=O)CSCC(=O)Nc1ccc(Cl)cc1)C1CCCCC1 | inconclusive: -3.01% |  |
| CC(C)(C)Nc1nc(N2CCCC2)nc(N2CCCC2)n1 | inconclusive: 13% |  |
| O=C(Oc1cccc(NC(=O)c2ccco2)c1)c1cccc(S(=O)(=O)N2CCCCC2)c1 |  | inconclusive: 14.6 µM [falling, partial curve] |
| O=C(c1ccccc1-c1nc(-c2ccc(Cl)cc2)no1)N1CCCC1 | inconclusive: 0.631% |  |
| CCc1ccc(C(=O)/C=C/c2ccc([N+](=O)[O-])o2)cc1 |  | inconclusive: 23.1 µM [falling, single point] |
| COc1ccc(C(=O)C2CCCN(Cc3cc(Cl)ccc3O)C2)c(OC)c1 (centres undefined) | inconclusive: -1.83% |  |
| COc1ccc(C2CC(c3ccccc3)n3nc(NC(=O)c4cccs4)nc3N2)cc1 (centres undefined) | inactive: 0.244% |  |
| Cc1ccc(NC(=O)C2COc3ccccc3O2)cc1C (centres undefined) | inconclusive: 1.34% |  |
| O=C(COC(=O)c1ccc(NS(=O)(=O)c2cccs2)cc1O)NCc1ccccc1 |  | inconclusive: 22.4 µM [falling, single point] |
| CCCOc1ccc(C(=O)C(CCC(CNCC)C(=O)c2ccc(OCCC)cc2)CNCC)cc1 (centres undefined) | inconclusive: -16.9% |  |
| Cn1c(C(=O)N[C@@H](Cc2ccccc2)C(=O)O)cc2cc(Cl)ccc21 | inconclusive: -6.31% |  |
| CCOC(=O)c1cc(C)sc1N1C(=O)C2C3C=CC(C3)C2C1=O (centres undefined) | inconclusive: -1.9% |  |
| CC1CCN(C(=S)NCCc2ccccc2)CC1 |  | inconclusive: 0.13 µM [rising, full curve] |
| CCS(=O)(=O)Nc1cccc(C2=NN(S(=O)(=O)c3ccc(F)cc3)C(c3cccs3)C2)c1 (centres undefined) | inconclusive: -1.45% |  |
| ONc1cccnc1-n1nc(C(F)(F)F)cc1C(F)(F)F |  | inconclusive: 17.8 µM [rising, partial curve, poor fit] |
| CC(C)c1nnc(NC(=O)c2cc3cc(Br)ccc3oc2=O)s1 | inconclusive: 8.86% |  |
